Test results as given in the supplement of paper PMC6078165.
Values are relative to the signal before dosing, not to a vehicle control; the signal also falls without drug.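 Fibroblast labels name human fibroblasts: mostly primary ones from tissues such as uterus (C12385, HUF), lung (H6013), bone (Hs27A), adrenal (HADF) and skin (WS1), plus mammary HMF and breast cancer-associated Hs343T. The cancer cells are basal-like or mesenchymal-like triple-negative breast cancer lines. The paper calls a changed response a hit when it shifts by more than 3x the replicate standard deviation. The tissue of the other fibroblasts is not given here.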

System: MDAMB468
Experiment: relative JC-1 red fluorescence (viability) vs pre-drug, coculture with fibroblast (fraction); higher = more viable cancer cells
Experimental: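 JC-1 labelled TNBC cells cocultured 1:1 (1,500 cells each) with CellTrace Violet stained primary or stromal fibroblasts in 384-well plates in FluoroBrite medium, treated with one of 42 anticancer drugs at 0.1, 1, 10 or 100 uM. JC-1 red fluorescence (mitochondrial integrity in cancer cells only) was read by plate reader every 8 h for 72 h. Values are normalised to each well's pre-drug value. The stock of one drug was tenfold lower, so its dose labels may be too high.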

CC(=O)O[C@H]1C(=O)[C@@]2(C)[C@H]([C@H](OC(=O)c3ccccc3)[C@]3(O)C[C@H](OC(=O)[C@H](O)[C@@H](NC(=O)c4ccccc4)c4ccccc4)C(C)=C1C3(C)C)[C@]1(OC(C)=O)CO[C@@H]1C[C@@H]2O [Paclitaxel]
relative JC-1 red fluorescence
Conditions | 8 h | 16 h | 24 h | 32 h | 40 h | 48 h | 56 h | 64 h | 72 h
0.1 µM, coculture fibroblast: C12385 | 0.8873 | 0.8154 | 0.772 | 0.726 | 0.687 | 0.678 | 0.63 | 0.608 | 0.612
0.1 µM, coculture fibroblast: H6013 | 0.917 | 0.83 | 0.83 | 0.833 | 0.816 | 0.835 | 0.794 | 0.809 | 0.751
0.1 µM, coculture fibroblast: H6019 | 0.826 | 0.814 | 0.816 | 0.799 | 0.772 | 0.77 | 0.734 | 0.722 | 0.71
0.1 µM, coculture fibroblast: H6076 | 0.943 | 0.889 | 0.888 | 0.898 | 0.81716 | 0.81 | 0.769 | 0.75 | 0.814
0.1 µM, coculture fibroblast: H6231 | 0.84 | 0.942 | 0.8625 | 0.812 | 0.7393 | 0.72 | 0.669 | 0.641 | 0.638
0.1 µM, coculture fibroblast: HADF | 0.92 | 0.8146 | 0.785 | 0.772 | 0.729 | 0.728 | 0.689 | 0.674 | 0.609
0.1 µM, coculture fibroblast: HCFa | 0.857 | 0.803 | 0.758 | 0.73 | 0.647 | 0.634 | 0.568 | 0.523 | 0.463
0.1 µM, coculture fibroblast: HCPF | 0.9059 | 0.92 | 0.872 | 0.899 | 0.8161 | 0.775 | 0.707 | 0.676 | 0.655
0.1 µM, coculture fibroblast: HHSteC | 0.905 | 0.844 | 0.823 | 0.793 | 0.73 | 0.748 | 0.678 | 0.652 | 0.589
0.1 µM, coculture fibroblast: HMF | 0.862 | 0.932 | 0.858 | 0.844 | 0.754 | 0.728 | 0.675 | 0.657 | 0.638
0.1 µM, coculture fibroblast: HPFa | 0.919 | 0.889 | 0.822 | 0.764 | 0.688 | 0.674 | 0.612 | 0.579 | 0.5
0.1 µM, coculture fibroblast: HUF | 0.9135 | 0.795 | 0.72 | 0.643 | 0.578 | 0.546 | 0.501 | 0.47 | 0.447
0.1 µM, coculture fibroblast: Hs5 | 0.762 | 0.972 | 0.9352 | 0.93 | 0.855 | 0.8122 | 0.758 | 0.719 | 0.749
0.1 µM, coculture fibroblast: Hs27A | 0.869 | 0.7955 | 0.8051 | 0.79 | 0.743 | 0.745 | 0.726 | 0.723 | 0.67
0.1 µM, coculture fibroblast: Hs343T | 0.932 | 0.98206 | 0.927 | 0.894 | 0.8104 | 0.782 | 0.6973 | 0.67 | 0.641
0.1 µM, coculture fibroblast: WS1 | 0.8817 | 0.745 | 0.702 | 0.646 | 0.589 | 0.553 | 0.502 | 0.478 | 0.477
1 µM, coculture fibroblast: C12385 | 0.8871 | 0.823 | 0.78 | 0.721 | 0.677 | 0.65 | 0.608 | 0.59 | 0.585
1 µM, coculture fibroblast: H6013 | 0.942 | 0.912 | 0.89 | 0.896 | 0.888 | 0.903 | 0.867 | 0.873 | 0.812
1 µM, coculture fibroblast: H6019 | 0.827 | 0.799 | 0.789 | 0.768 | 0.747 | 0.739 | 0.708 | 0.682 | 0.669
1 µM, coculture fibroblast: H6076 | 0.899 | 0.893 | 0.893 | 0.936 | 0.864 | 0.87 | 0.8526 | 0.8482 | 0.9461
1 µM, coculture fibroblast: H6231 | 0.85246 | 0.884 | 0.8034 | 0.81 | 0.723 | 0.719 | 0.674 | 0.649 | 0.653
1 µM, coculture fibroblast: HADF | 0.918 | 0.8656 | 0.821 | 0.803 | 0.761 | 0.767 | 0.725 | 0.724 | 0.666
1 µM, coculture fibroblast: HCFa | 0.871 | 0.846 | 0.796 | 0.768 | 0.705 | 0.688 | 0.627 | 0.597 | 0.536
1 µM, coculture fibroblast: HCPF | 0.905 | 0.893 | 0.868 | 0.895 | 0.815 | 0.785 | 0.735 | 0.728 | 0.731
1 µM, coculture fibroblast: HHSteC | 0.92 | 0.854 | 0.815 | 0.782 | 0.738 | 0.737 | 0.666 | 0.6394 | 0.585
1 µM, coculture fibroblast: HMF | 0.8366 | 0.9011 | 0.846 | 0.8348 | 0.74365 | 0.7118 | 0.6608 | 0.6419 | 0.639
1 µM, coculture fibroblast: HPFa | 0.935 | 0.902 | 0.857 | 0.795 | 0.759 | 0.747 | 0.671 | 0.644 | 0.57
1 µM, coculture fibroblast: HUF | 0.903 | 0.797 | 0.743 | 0.68 | 0.636 | 0.612 | 0.56547 | 0.548 | 0.529
1 µM, coculture fibroblast: Hs5 | 0.882 | 0.87 | 0.948 | 0.936 | 0.842 | 0.799 | 0.756 | 0.725 | 0.758
1 µM, coculture fibroblast: Hs27A | 0.8879 | 0.8346 | 0.8247 | 0.8225 | 0.786 | 0.781 | 0.78 | 0.781 | 0.726
1 µM, coculture fibroblast: Hs343T | 0.863 | 0.902 | 0.837 | 0.821 | 0.727 | 0.692 | 0.64 | 0.613 | 0.592
1 µM, coculture fibroblast: WS1 | 0.86 | 0.75489 | 0.717 | 0.6548 | 0.628 | 0.603 | 0.582 | 0.5653 | 0.5635
10 µM, coculture fibroblast: C12385 | 0.907 | 0.855 | 0.843 | 0.797 | 0.76 | 0.762 | 0.732 | 0.71 | 0.705
10 µM, coculture fibroblast: H6013 | 0.9194 | 0.8692 | 0.8665 | 0.852 | 0.815 | 0.831 | 0.809 | 0.8023 | 0.73901
10 µM, coculture fibroblast: H6019 | 0.854 | 0.831 | 0.821 | 0.797 | 0.773 | 0.774 | 0.738 | 0.721 | 0.716
10 µM, coculture fibroblast: H6076 | 0.853 | 0.7938 | 0.864 | 0.799 | 0.957 | 0.949 | 0.906 | 0.885 | 0.857
10 µM, coculture fibroblast: H6231 | 0.84 | 0.975 | 0.8877 | 0.834 | 0.754 | 0.714 | 0.646 | 0.622 | 0.592
10 µM, coculture fibroblast: HADF | 0.94595 | 0.897 | 0.876 | 0.886 | 0.827 | 0.822 | 0.784 | 0.77 | 0.709
10 µM, coculture fibroblast: HCFa | 0.9152 | 0.8179 | 0.8002 | 0.7613 | 0.701 | 0.699 | 0.666 | 0.649 | 0.601
10 µM, coculture fibroblast: HCPF | 0.893 | 0.988 | 0.921 | 0.9074 | 0.836 | 0.793 | 0.727 | 0.705 | 0.692
10 µM, coculture fibroblast: HHSteC | 0.9455 | 0.919 | 0.884 | 0.849 | 0.7977 | 0.80676 | 0.7531 | 0.7356 | 0.6925
10 µM, coculture fibroblast: HMF | 0.873 | 0.919 | 0.9184 | 0.889 | 0.825 | 0.802 | 0.727 | 0.707 | 0.683
10 µM, coculture fibroblast: HPFa | 0.865 | 0.959 | 0.929 | 0.89 | 0.847 | 0.822 | 0.783 | 0.753 | 0.674
10 µM, coculture fibroblast: HUF | 0.9405 | 0.8601 | 0.82 | 0.74 | 0.687 | 0.658 | 0.615 | 0.598 | 0.578
10 µM, coculture fibroblast: Hs5 | 0.859 | 0.9827 | 0.948 | 0.949 | 0.875 | 0.838 | 0.7928 | 0.768 | 0.805
10 µM, coculture fibroblast: Hs27A | 0.88 | 0.8635 | 0.83 | 0.826 | 0.781 | 0.774 | 0.74 | 0.725 | 0.684
10 µM, coculture fibroblast: Hs343T | 0.908 | 0.756 | 0.9395 | 0.893 | 0.793 | 0.746 | 0.665 | 0.633 | 0.585
10 µM, coculture fibroblast: WS1 | 0.8995 | 0.814 | 0.784 | 0.728 | 0.673 | 0.647 | 0.622 | 0.587 | 0.57
